Assay results published in US20230242871A1, “GENERATION OF PRIMORDIAL GERM CELLS AND METHODS OF USING THE SAME” (The Board of Trustees of the Leland Stanfor Junior …, priority 2020, published 2023).

Columns and labels:
Assay in all cases: High-throughput cell-surface marker screening (LEGENDScreen), %PE+
Format in all cases: cell-based, human
Conditions in all cases: percentage of cells bound to the PE-conjugated antibody (LEGENDScreen)
[1] = tested on: undifferentiated hPSC (D0)
D3.5 SOX17-GFP+ PGCs = tested on: D3.5 SOX17-GFP+ PGCs
D3.5 SOX17-GFP- non-PGCs = tested on: D3.5 SOX17-GFP- non-PGCs

Row | Molecule | % PE+ in H1 UD [1] [%] | % PE+ in PGCs (D3.5 SOX17-GFP+ PGCs) [%] | % PE+ in non-PGCs (D3.5 SOX17-GFP- non-PGCs) [%]
1 | CD132 (protein, UniProt P31785 23-369, looked up) Cytokine receptor common …: LNTTILTPNGNEDTTADFFLTTMPTDSLSVSTLPLPEVQCFVFNVEYMNCTWNSSSEPQPTNLTLHYWYKNSDNDKVQKCSHYLFSEEITSGCQLQKKEIHLYQTFVVQLQDPREPRRQATQMLKLQNLVIPWAPENLTLHKLSESQLELNWNNRFLNHCLEHLVQYRTDWDHSWTEQSVDYRHKFSLPSVDGQKRYTFRVRSRFNPLCGSAQHWSEWSHPIHWGSNTSKENPFLFALEAVVISVGSMGLIISLLCVYFWLERTMPRIPTLKNLEDLVTEYHGNFSAWSGVSKGLAESLQPDYSERLCLVSEIPPKGGALGEGPGASPCNQHSPYWAPPCYTLKPET | 1.07 | 0.007812 | 0.008005
2 | CX3CR1 (protein, UniProt P49238 1-355, looked up) CX3C chemokine receptor 1: MDQFPESVTENFEYDDLAEACYIGDIVVFGTVFLSIFYSVIFAIGLVGNLLVVFALTNSKKPKSVTDIYLLNLALSDLLFVATLPFWTHYLINEKGLHNAMCKFTTAFFFIGFFGSIFFITVISIDRYLAIVLAANSMNNRTVQHGVTISLGVWAAAILVAAPQFMFTKQKENECLGDYPEVLQEIWPVLRNVETNFLGFLLPLLIMSYCYFRIIQTLFSCKNHKKAKAIKLILLVVIVFFLFWTPYNVMIFLETLKLYDFFPSCDMRKDLRLALSVTETVAFSHCCLNPLIYAFAGEKFRRYLYHLYGKCLAVLCGRSVHVDFSSSESQRSRHGSVLSSNFTYHTSDGDALLLL | 0.2 | 0 | 0.0001112
3 | CD143 (protein, UniProt P12821 30-1306, looked up) Angiotensin-converting enzyme: LDPGLQPGNFSADEAGAQLFAQSYNSSAEQVLFQSVAASWAHDTNITAENARRQEEAALLSQEFAEAWGQKAKELYEPIWQNFTDPQLRRIIGAVRTLGSANLPLAKRQQYNALLSNMSRIYSTAKVCLPNKTATCWSLDPDLTNILASSRSYAMLLFAWEGWHNAAGIPLKPLYEDFTALSNEAYKQDGFTDTGAYWRSWYNSPTFEDDLEHLYQQLEPLYLNLHAFVRRALHRRYGDRYINLRGPIPAHLLGDMWAQSWENIYDMVVPFPDKPNLDVTSTMLQQGWNATHMFRVAEEFFTSLELSPMPPEFWEGSMLEKPADGREVVCHASAWDFYNRKDFRIKQCTRVTMDQLSTVHHEMGHIQYYLQYKDLPVSLRRGANPGFHEAIGDVLALSVSTPEHLHKIGLLDRVTNDTESDINYLLKMALEKIAFLPFGYLVDQWRWGVFSGRTPPSRYNFDWWYLRTKYQGICPPVTRNETHFDAGAKFHVPNVTPYIRYFVSFVLQFQFHEALCKEAGYEGPLHQCDIYRSTKAGAKLRKVLQAGSSRPWQEVLKDMVGLDALDAQPLLKYFQPVTQWLQEQNQQNGEVLGWPEYQWHPPLPDNYPEGIDLVTDEAEASKFVEEYDRTSQVVWNEYAEANWNYNTNITTETSKILLQKNMQIANHTLKYGTQARKFDVNQLQNTTIKRIIKKVQDLERAALPAQELEEYNKILLDMETTYSVATVCHPNGSCLQLEPDLTNVMATSRKYEDLLWAWEGWRDKAGRAILQFYPKYVELINQAARLNGYVDAGDSWRSMYETPSLEQDLERLFQELQPLYLNLHAYVRRALHRHYGAQHINLEGPIPAHLLGNMWAQTWSNIYDLVVPFPSAPSMDTTEAMLKQGWTPRRMFKEADDFFTSLGLLPVPPEFWNKSMLEKPTDGREVVCHASAWDFYNGKDFRIKQCTTVNLEDLVVAHHEMGHIQYFMQYKDLPVALREGANPGFHEAIGDVLALSVSTPKHLHSLNLLSSEGGSDEHDINFLMKMALDKIAFIPFSYLVDQWRWRVFDGSITKENYNQEWWSLRLKYQGLCPPVPRTQGDFDPGAKFHIPSSVPYIRYFVSFIIQFQFHEALCQAAGHTGPLHKCDIYQSKEAGQRLATAMKLGFSRPWPEAMQLITGQPNMSASAMLSYFKPLLDWLRTENELHGEKLGWPQYNWTPNSARSEGPLPDSGRVSFLGLDLDAQQARVGQWLLLFLGIALLVATLGLSQRLFSIRHRSLHRHSHGPQFGSEVELRHS | 25 | 0.2429 | 0.09792
4 | CD148 (protein, UniProt Q12913 36-1337, looked up) Receptor-type …: AGGTPSPIPDPSVATVATGENGITQISSTAESFHKQNGTGTPQVETNTSEDGESSGANDSLRTPEQGSNGTDGASQKTPSSTGPSPVFDIKAVSISPTNVILTWKSNDTAASEYKYVVKHKMENEKTITVVHQPWCNITGLRPATSYVFSITPGIGNETWGDPRVIKVITEPIPVSDLRVALTGVRKAALSWSNGNGTASCRVLLESIGSHEELTQDSRLQVNISGLKPGVQYNINPYLLQSNKTKGDPLGTEGGLDASNTERSRAGSPTAPVHDESLVGPVDPSSGQQSRDTEVLLVGLEPGTRYNATVYSQAANGTEGQPQAIEFRTNAIQVFDVTAVNISATSLTLIWKVSDNESSSNYTYKIHVAGETDSSNLNVSEPRAVIPGLRSSTFYNITVCPVLGDIEGTPGFLQVHTPPVPVSDFRVTVVSTTEIGLAWSSHDAESFQMHITQEGAGNSRVEITTNQSIIIGGLFPGTKYCFEIVPKGPNGTEGASRTVCNRTVPSAVFDIHVVYVTTTEMWLDWKSPDGASEYVYHLVIESKHGSNHTSTYDKAITLQGLIPGTLYNITISPEVDHVWGDPNSTAQYTRPSNVSNIDVSTNTTAATLSWQNFDDASPTYSYCLLIEKAGNSSNATQVVTDIGITDATVTELIPGSSYTVEIFAQVGDGIKSLEPGRKSFCTDPASMASFDCEVVPKEPALVLKWTCPPGANAGFELEVSSGAWNNATHLESCSSENGTEYRTEVTYLNFSTSYNISITTVSCGKMAAPTRNTCTTGITDPPPPDGSPNITSVSHNSVKVKFSGFEASHGPIKAYAVILTTGEAGHPSADVLKYTYEDFKKGASDTYVTYLIRTEEKGRSQSLSEVLKYEIDVGNESTTLGYYNGKLEPLGSYRACVAGFTNITFHPQNKGLIDGAESYVSFSRYSDAVSLPQDPGVICGAVFGCIFGALVIVTVGGFIFWRKKRKDAKNNEVSFSQIKPKKSKLIRVENFEAYFKKQQADSNCGFAEEYEDLKLVGISQPKYAAELAENRGKNRYNNVLPYDISRVKLSVQTHSTDDYINANYMPGYHSKKDFIATQGPLPNTLKDFWRMVWEKNVYAIIMLTKCVEQGRTKCEEYWPSKQAQDYGDITVAMTSEIVLPEWTIRDFTVKNIQTSESHPLRQFHFTSWPDHGVPDTTDLLINFRYLVRDYMKQSPPESPILVHCSAGVGRTGTFIAIDRLIYQIENENTVDVYGIVYDLRMHRPLMVQTEDQYVFLNQCVLDIVRSQKDSKVDLIYQNTTAMTIYENLAPVTTFGKTNGYIA | 99.7 | 0.5294 | 0.2763
5 | CD278 (protein, UniProt Q9Y6W8 21-199, looked up) Inducible T-cell costimulator: EINGSANYEMFIFHNGGVQILCKYPDIVQQFKMQLLKGGQILCDLTKTKGSGNTVSIKSLKFCHSQLSNNSVSFFLYNLDHSHANYYFCNLSIFDPPPFKVTLTGGYLHIYESQLCCQLKFWLPIGCAAFVVVCILGCILICWLTKKKYSSSVHDPNGEYMFMRAVNTAKKSRLTDVTL | 0.038 | 0 | 5.9713E-05
6 | CD150 (protein, UniProt Q13291 21-335, looked up) Signaling lymphocytic …: ASYGTGGRMMNCPKILRQLGSKVLLPLTYERINKSMNKSIHIVVTMAKSLENSVENKIVSLDPSEAGPPRYLGDRYKFYLENLTLGIRESRKEDEGWYLMTLEKNVSVQRFCLQLRLYEQVSTPEIKVLNKTQENGTCTLILGCTVEKGDHVAYSWSEKAGTHPLNPANSSHLLSLTLGPQHADNIYICTVSNPISNNSQTFSPWPGCRTDPSETKPWAVYAGLLGGVIMILIMVVILQLRRRGKTNHYQTTVEKKSLTIYAQVQKPGPLQKKLDSFPAQDPCTTIYVAATEPVPESVQETNSITVYASVTLPES | 0.022 | 0 | 0
